# Results as given in the supplement of paper PMC10338343.
# ± gives the standard deviation. The list shows a part of the results, in another mix than the full data. The uncertainty is large for many entries.
# Tested on: MILI (PIWIL2) piRISC loaded with piRNA #1 (26 nt)
# Assay: pre-steady-state target cleavage rate (min^-1); MIWI and MILI are mouse PIWI proteins and EfPiwi is from a freshwater sponge; tags in brackets are library labels; higher = faster piRNA-guided slicing of the target
# Details: guide: piRNA #1 5'p-UGAGGUAGUAGGUUGUAUAGUAUCCA; auxiliary factor: 500 nM mouse GTSF1
# In short: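 A transcribed, DNA-blocked target RNA library […] was incubated at 33 °C for 0–8 or 0–960 min with 1 nM active affinity-purified piRISC carrying one synthetic guide, in HEPES–potassium acetate buffer with or without 500 nM GTSF1 partner protein. Uncleaved targets were then sequenced and normalised to depth and to weakly complementary targets. Data from three trials were pooled, with k3 capped at 0.0001 min^-1, and a burst-and-steady-state fit yielded the pre-steady-state cleavage rate.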
# 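Further: 1 nM active piRISC with 0.1 nM target library at 33 °C single turnover.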
row,Sequence,pre-steady-state target cleavage rate
1,GGAGACCUAUGAUAUGUUCCUACCUACCUCA,0.000117 ± 0.024
2,GGAGACGAAACUAUACAACCUACUACCUCA,0.172 ± 0.022
3,GGAGACCUAUGAUAUGUUGCAAGUACCUCA,0.000166 ± 0.033
4,GGAGUGGAUUCUAAACAACCUACUACCUCA,0.143 ± 0.0089
5,GGAGACCAUACUAUACAACCUAGAUCCUCA,0.0232 ± 0.0082
6,GGAGACCUAUGAUAUGUUGCAUGUACCUCA,0.000226 ± 0.03
7,GGAGUGGAAACUAUUCAACCUACUACCUCA,0.192 ± 0.017
8,GGAGACGAUACUAUACAACCUACUAGGACA,0.00128 ± 0.0083
9,GGAGACCUAUGAAUAGAACCUACUACGUCA,0.000135 ± 0.025
10,GGAGACCUAUGAUUACAACCUAGAUGGAGA [g9:g17:cont:t1A],0.000166 ± 0.017
11,GGAGACGAUACUAUACUACCUACUACGUCA,0.138 ± 0.019
12,GGAGACCUUACUAUACAACCAUGUACCUCA,0.000992 ± 0.0083
13,GGAGACCUAUGUAUACAACCUUGAUGGAGA [g10:g19:cont:t1A],0.000328 ± 0.013
14,GGAGUGGUUACUAUACAACCUACUUCCUCA,0.0036 ± 0.002
15,GGAGACGAUACUAUACAAGCUUCUACCUCA,0.0442 ± 0.0052
16,GGAGACCUAACUAUACAACCUACUCCUCA,0.0015 ± 0.012
17,GGAGACCUAUGAUAUCAACCUACUUCCUGA,0.000179 ± 0.018
18,GGAGACCUAUGAUUAAAACCUACUACCUCA,0.000361 ± 0.0072
19,GGAGACCUAACUAUCCAACCUACUACCUCA,0.208 ± 0.038
20,GGAGACCUAUGAUAUGAACCUACAACCACA,< 0.0001

# Nothing new here: entries from further up.
row,Sequence,pre-steady-state target cleavage rate
3,GGAGACCUAUGAUAUGUUGCAAGUACCUCA,0.000166 ± 0.033
4,GGAGUGGAUUCUAAACAACCUACUACCUCA,0.143 ± 0.0089

# Later entries

row,Sequence,pre-steady-state target cleavage rate
1,GGAGACCUAUGAUAUGUACCUACCACCUCA,0.000185 ± 0.019
2,GGAGAGGAAACUAAACAACCUACUACCUCA,0.229 ± 0.03
3,GGAGACCUCACUAUACAACCUACUACCUCA,0.252 ± 0.029
4,GGAGUGGAUACUAUACAACCUUCUUCCUCA,0.000291 ± 0.0095
5,GGAGACCUUAUCUAUACAACCUACUACCUCA,0.115 ± 0.014
6,GGAGUGAGAUACUAUACAACCUACUACCUCA,0.189 ± 0.012
7,GGAGACCUAUGAUAACAACGUACUAGCUCA,0.000787 ± 0.01
8,GGAGACGAUACUAUAAAACCUACUACCUCA,0.184 ± 0.013
9,GGAGACCUAUGAUAUGUACCUACUUACCUCA,0.000235 ± 0.011
10,GGAGACCUUACUAUACAACCAACUAGCUCA,0.0021 ± 0.0029
11,GGAGUGGAUACUAUACAACCUAGUACGUCA,0.000667 ± 0.0053
12,GGAGACCUUACUAUACAACCUACUAGCCUCA,0.181 ± 0.018
13,GGAGACGAUACUAUACAAGCUACUACCACA,0.311 ± 0.016
14,GGAGACGAAACUAUACAACCUUCUACCUCA,0.00739 ± 0.0047
15,GGAGACCUUUCUAUACAACCUACUACCUCA,0.0895 ± 0.0097
16,GGAGACCUAUGAUAUGUACCAACAACCUCA,< 0.0001
17,GGAGACCUAUGAUAUGUUCCUACUACCUCU [g2:g12:cont:t1U],< 0.0001
18,GGAGAGGAUACUAUACAUACCUACUACCUCA,0.00293 ± 0.0039
19,GGAGACCUAUGUAUACAACUCUACUACCUCA,0.000517 ± 0.0088
20,GGAGACGAUACUAUUCUACCUACUACCUCA,0.173 ± 0.012
